Data as given in PubChem BioAssay AID504774 (Drosophila RNAi Screening Center, 2011)
The deposit covers about 23,000 reagents; shown is an unselected part of those with a known target gene and a result. 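Values are quantile-normalised luminescence on an arbitrary scale; higher means more cells surviving MMS.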 Further read-outs or replicates are left out here. No sequences are given here.

- Assay: 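Fly genes whose loss alters survival after alkylation damage to DNA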 (primary screen)
- System: Drosophila Kc167 cells
- Knock-down reagent: long dsRNA against Drosophila genes, about 0.25 µg dsRNA per well
- Timing: about 6 days: 3 days knock-down, then 3 days with or without MMS
- Conditions: methyl methanesulphonate 0.004% (w/v) for 3 days after knock-down
- Measurement: 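Viability in wells given MMS, read as ATP luminescence, normalised by quantiles plate by plate and averaged across replicates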
- Reading the numbers: mean viability with MMS: higher = more surviving cells after MMS

Target gene | DRSC id | mean viability with MMS
CG16820 | DRSC02522 | 3.53e6
CG17109 | DRSC15172 | 3.71e6
Tip60 | DRSC18661 | 3.01e6
Nup154 | DRSC03384 | 3.21e6
CG17658 | DRSC04292 | 3.42e6
CG13484 | DRSC10026 | 3.46e6
CG2224 | DRSC15429 | 3.57e6
CG32182 | DRSC09508 | 3.44e6
CG14743 | DRSC06479 | 3.49e6
Pino | DRSC00038 | 3.21e6
Pino | DRSC00662 | 3.40e6
CG11912 | DRSC00332 | 3.47e6
tko | DRSC18844 | 3.46e6
CG12231 | DRSC19445 | 3.49e6
CG3640 | DRSC04399 | 3.47e6
CG15695 | DRSC15117 | 3.60e6
CG7720 | DRSC16306 | 3.54e6
CG7720 | DRSC16307 | 2.05e6
Bulli | DRSC10974 | 3.46e6
Tsp5D | DRSC18380 | 3.55e6
mey | DRSC14468 | 3.57e6
CG11699 | DRSC19419 | 3.51e6
Gpo3 | DRSC01978 | 3.62e6
Su(P) | DRSC11291 | 3.53e6
Rab21 | DRSC20968 | 3.24e6
Ptp10D | DRSC20272 | 3.54e6
CSN5 | DRSC16592 | 3.51e6
CSN5 | DRSC22381 | 3.42e6

3 entries already listed, arranged by “mean viability with MMS”, ascending.
Target gene | DRSC id | mean viability with MMS
CG3640 | DRSC04399 | 3.47e6
CG7720 | DRSC16306 | 3.54e6
CG15695 | DRSC15117 | 3.60e6
